Experimental data: PubChem BioAssay AID504784 (Drosophila RNAi Screening Center, 2011)
Test: 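Fly genes whose silencing alters how much lipid cells keep in droplets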 (primary screen). Cell system: Drosophila Kc167 embryonic cells. Reagent: long dsRNA against Drosophila genes, about 250 ng dsRNA per well. Duration: 4 days. Challenge: cells fed 400 µM oleic acid bound to BSA. Measured: 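Microscope images give a droplet-to-nucleus area ratio, taken as log and converted to a screen-wide B-score; higher values mean greater lipid storage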. Direction: droplet/nuclear area B-score: higher = more stored lipid (overstorage).
The deposit covers about 17,000 reagents; shown is an unselected part of those with a known target gene and a result. 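Each column is one replicate's B-score; the combined score over replicates was not deposited, so single values may mislead.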 Reagents against one gene are numbered here. Names joined by + are all predicted targets of the reagent.

| target | dsRNA no. | droplet/nuclear area B-score, replicate 1 | droplet/nuclear area B-score, replicate 2 | droplet/nuclear area B-score, replicate 3 |
| --- | --- | --- | --- | --- |
| CG14961 | 1 | 1.52 | 1.78 | – |
| CG2812 | 1 | -0.417 | -0.0195 | – |
| CG16799 | 1 | 0.0594 | -1.17 | – |
| CG16799 | 2 | 0.804 | 1.44 | – |
| Cpr47Ec | 1 | 1.17 | 1.93 | – |
| CG7137 | 1 | – | 0.189 | – |
| ND-B17.2 | 1 | -0.537 | -3.71 | – |
| CG1910 | 1 | -0.129 | -1.37 | – |
| Fbxl7 | 1 | 1.96 | 0.959 | – |
| CG32148 | 1 | 2.04 | -0.812 | – |
| Polr1H | 1 | 1.47 | -0.107 | – |
| CG32944 | 1 | 0.976 | 0.0108 | – |
| CG32944 | 2 | 1.66 | 0.637 | – |
| Sf3b6 | 1 | -0.419 | -1.35 | – |

3 entries from above, showing only “droplet/nuclear area B-score, replicate 1”:
CG1910 = -0.129
Fbxl7 = 1.96
CG32148 = 2.04

Additional records follow:
| target | dsRNA no. | droplet/nuclear area B-score, replicate 1 | droplet/nuclear area B-score, replicate 2 | droplet/nuclear area B-score, replicate 3 |
| --- | --- | --- | --- | --- |
| shrb | 1 | 0.105 | -0.868 | – |
| robo3 | 1 | 1.46 | -1.61 | – |
| robo3 | 2 | 3.29 | -0.108 | – |
| robo3 | 3 | -0.426 | 0.105 | – |
| Jig | 1 | -0.45 | 0.00775 | – |
| Bdp1 | 1 | 0.0968 | 1.95 | – |
| Tsp74F | 1 | -0.0552 | -1.35 | – |
| CG9164 | 1 | -0.898 | 0.221 | – |
| CG9164 | 2 | -0.551 | -0.831 | 1.15 |
| tsl | 1 | -0.409 | 0.93 | – |
| CG6421 | 1 | 0.0423 | -1.21 | – |
| DNaseII | 1 | 1.46 | -0.696 | – |
| Ggamma1 | 1 | 0.9 | -1.02 | – |
| Nup93-2 | 1 | 0.694 | -0.442 | – |
| CG8617 | 1 | -0.682 | 3.41 | – |
| CG17385 | 1 | 2.96 | -0.321 | – |
| CG9313 | 1 | -0.508 | -0.0965 | – |
| Atat | 1 | 0.09 | -0.848 | – |
| Klp67A + CG34456 | 1 | 0.193 | 0.00637 | – |
| Trx2 | 1 | -0.43 | 0.228 | – |
